Patent US9624277B2, “Anticancer agent” (AMRITA THERAPEUTICS LIMITED, priority 2010, dated 2017)
At least one peptide structure holds a part that was inferred or is arguable (an end, a ring closure or a residue). Some entries share one result that the patent states for a list of compounds. No end group written: not given here.

Tests used:
[1] = test system: SiHa cervix cancer cell line; settings: both concentrations (1 and 10 μM), up to 24 h, MTT
[2] = test system: CaSki cervix cancer cell line; settings: both concentrations (1 and 10 μM), up to 24 h, MTT
[3] = test system: HTB-9 bladder cancer cells; experiment: MTT cytotoxicity assay, HTB-9 bladder cancer cells; assay type: cell-based, human; settings: HTB-9 cells, 1.0 and 10.0 micromolar
[4] = test system: HCT 116 colorectal cancer cell line; assay type: cell-based, human; settings: HCT 116 cells, both concentrations (1 and 10 μM), up to 24 h, MTT
Source text: ATCC HCT 116: Human cell line with epithelial-like characteristics established from colorectal carcinoma from an adult patient. The cells are positive for keratin by immunoperoxidase staining. HCT 116 cells are positive for transforming growth factor beta 1 (TGF beta 1) and beta 2 (TGF beta 2) expression. This line has a mutation in codon 13 of the ras protooncogene, and can be used as a positive control for PCR assays of mutation in this codon.

Sequence | cancer cells killed [1] | cancer cells killed [2] | cytotoxicity ([3]; 48 h) | cytotoxicity ([3]; 72 h) [%] | cancer cells killed [4]
GQVWEATATVNAIRGSVTPAVSQFNARTAD [MB30] | about 40% | about 40% | up to 40% | ≤ 60 | about 40%
NHFTLKCPKTALTEPPTLAY [TG20] |  |  | up to 40% | ≤ 60 | 
TAGIKLTVPIEKFPVTTQTFVVG [TG23] |  |  | up to 40% | ≤ 60 | 
